{"source": "ChEMBL document CHEMBL3232750", "about": "“Synthesis, structure-activity relationships, and in vitro antibacterial and antifungal activity evaluations of novel pyrazole carboxylic and dicarboxylic acid derivatives” (2014)", "tested_on": "Candida albicans", "assay": "Antifungal activity against Candida albicans at 100 U/disc at 25 degC after 48 hrs by agar well diffusion assay", "assay_type": "functional, organism-based", "data": [{"sequence": "NYSTATIN", "values": [{"measurement": "inhibition zone (IZ)", "value": 19, "unit": "mm"}]}]}
